The test addresses soluble IL6-R in cynomolgus plasma (cynomolgus monkey (Macaca fascicularis)). In words: FACS on U266 cells in presence of cynomolgus plasma.

Results are given in words; binding and its absence hold for the method and conditions named. Some entries that bind do so weakly or less than the wild type.

B1: IL6R04 (VHH)
VHH: EVQLVESGGGLVQAGGSLRLSCAASGFTFDDYDIGWFRQAPGKEREGVSGISSSDGNTYYADSVKGRFTISSDNAKNTVYLQMNSLKPEDTAVYYCAAEPPDSSWYLDGSPEFFKYWGQGTQVTVSS
notes: also called PMP32C9; PMP 32 C9
Take B1: the binding result was “binds”.

The values above are taken from patent publication US20140221623A1 (Ablynx, published 2014).
